B1: ACS7 (AtACS7, 6His-SUMO-ACS7), non-phosphorylated (Arabidopsis thaliana) (protein)
chain: MGLPLMMERSSNNNNVELSRVAVSDTHGEDSPYFAGWKAYDENPYDESHNPSGVIQMGLAENQVSFDLLETYLEKKNPEGSMWGSKGAPGFRENALFQDYHGLKTFRQAMASFMEQIRGGKARFDPDRIVLTAGATAANELLTFILADPNDALLVPTPYYPGFDRDLRWRTGVKIVPIHCDSSNHFQITPEALESAYQTARDANIRVRGVLITNPSNPLGATVQKKVLEDLLDFCVRKNIHLVSDEIYSGSVFHASEFTSVAEIVENIDDVSVKERVHIVYSLSKDLGLPGFRVGTIYSYNDNVVRTARRMSSFTLVSSQTQHMLASMLSDEEFTEKYIRINRERLRRRYDTIVEGLKKAGIECLKGNAGLFCWMNLGFLLEKKTKDGELQLWDVILKELNLNISPGSSCHCSEVGWFRVCFANMSENTLEIALKRIHEFMDRRRRF
B2: phosphorylated ACS7 (AtACS7 phosphorylated by CDPK16) (Arabidopsis thaliana) (protein)
chain: B1 chain

Substrate: C[S+](CC[C@H](N)C(=O)O)C[C@H]1O[C@@H](n2cnc3c(N)ncnc32)[C@H](O)[C@@H]1O
Experiment: purified protein
Conditions: PLP cofactor, substrate not named beside the value, AdoMet by the enzyme's reaction, data not shown

Protein | Km (non-phosphorylated enzyme) [µM] | Km (enzyme phosphorylated by CDPK16) [µM]
B1 | 27.43 | 
B2 |  | 13.65

Source: PMC3808318, “A type III ACC synthase, ACS7, is involved in root gravitropism in Arabidopsis thaliana” (Journal of Experimental Botany, 2013)
